This note sets out measurements from PMC6296734, “The CbrB Regulon: Promoter dissection reveals novel insights into the CbrAB expression network in Pseudomonas putida”.

No constants are given. Whether binding was seen depends on the method and setting.

Assay [1] addresses CbrB (Pseudomonas putida). In words: AUC; sedimentation velocity, 20 °C, 45,000 rpm, CbrB binding buffer (50 mM Tris HCl pH 7.4, 50 mM KCl, DTT, 0.1 mM EDTA, 10 mM MgCl2), protein concentration printed as 60 μm; c(s) analysis with sedfit; both purified.
In assay [2] the target is CbrB (Pseudomonas putida). In words: SEC; as a2, 2 μM CbrB treated with 80 mM acetyl phosphate before loading; both purified.
In assay [3] the target is CbrB (Pseudomonas putida). In words: SEC; Superdex 200 increase 10/300GL, 500 μl of 2 μM CbrB, room temperature, CbrB binding buffer (50 mM Tris HCl pH 7.4, 50 mM KCl, 0.1 mM DTT, 0.1 mM EDTA, 10 mM MgCl2), 0.5 ml/min; both purified.
Assay [4] addresses CbrB (Pseudomonas putida). In words: SEC; as a2, 2 μM CbrB incubated with 4.5 nM DNA fragment containing the crcZ promoter region (subsites F1, R1, R2) before loading; both purified.

B1: CbrB (protein, UniProt A0ABM7EKZ2 1-480)
chain: MPHILIVEDETIIRSALRRLLERNQYQVSEAGSVQEAQERFSIATFDLIVSDLRLPGAPGTELIKLGQGTPVLIMTSYASLRSAVDSMKMGAVDYIAKPFDHDEMLQAVARILRDRQNAPAAASAAEPRATNGKAAPADKGSAAAANGEIGIIGSCPPMQDMYSKIRKVAPTDSNVLIQGESGTGKELVARALHNLSRRAKAPMISVNCAAIPETLIDSELFGHEKGAFTGASAGRAGLVEAADGGTLFLDEIGELPLEAQARLLRVLQEGEIRRVGSVQSQKVDVRLIAATHRDLKNLAKAGQFREDLYYRLHVIALKLPALRERGSDVNEIASAFLARQSARIGRDDLHFSAEAEQAIRHYSWPGNVRELENAVERAVILSESAEISAELLGIDIELSDLEEDEILNNALVVASAASASHEPTEDLSLEDYFQHFVLEHQDHMTETELARKLGVSRKCLWERRQRLGIPRRKSNATSE
B1: the binding result in assay [1] was “no binding (tested: 60 μm)”; in assay [2], “no binding (tested: 2 μM)”; in assay [3] it was “no binding (tested: 2 μM)”; in assay [4], “no binding (tested: 2 μM)”.
